From doi:10.1101/588574
No constants are given. Whether binding was seen depends on the method and setting. In cells and extracts the contact can be indirect. These calls come from enrichment with a bait or labelling near it, and not all partners need be listed.

Sequences of proteins named here, by UniProt entry; tags and fusion partners are left off.
UniProt Q9UQ84: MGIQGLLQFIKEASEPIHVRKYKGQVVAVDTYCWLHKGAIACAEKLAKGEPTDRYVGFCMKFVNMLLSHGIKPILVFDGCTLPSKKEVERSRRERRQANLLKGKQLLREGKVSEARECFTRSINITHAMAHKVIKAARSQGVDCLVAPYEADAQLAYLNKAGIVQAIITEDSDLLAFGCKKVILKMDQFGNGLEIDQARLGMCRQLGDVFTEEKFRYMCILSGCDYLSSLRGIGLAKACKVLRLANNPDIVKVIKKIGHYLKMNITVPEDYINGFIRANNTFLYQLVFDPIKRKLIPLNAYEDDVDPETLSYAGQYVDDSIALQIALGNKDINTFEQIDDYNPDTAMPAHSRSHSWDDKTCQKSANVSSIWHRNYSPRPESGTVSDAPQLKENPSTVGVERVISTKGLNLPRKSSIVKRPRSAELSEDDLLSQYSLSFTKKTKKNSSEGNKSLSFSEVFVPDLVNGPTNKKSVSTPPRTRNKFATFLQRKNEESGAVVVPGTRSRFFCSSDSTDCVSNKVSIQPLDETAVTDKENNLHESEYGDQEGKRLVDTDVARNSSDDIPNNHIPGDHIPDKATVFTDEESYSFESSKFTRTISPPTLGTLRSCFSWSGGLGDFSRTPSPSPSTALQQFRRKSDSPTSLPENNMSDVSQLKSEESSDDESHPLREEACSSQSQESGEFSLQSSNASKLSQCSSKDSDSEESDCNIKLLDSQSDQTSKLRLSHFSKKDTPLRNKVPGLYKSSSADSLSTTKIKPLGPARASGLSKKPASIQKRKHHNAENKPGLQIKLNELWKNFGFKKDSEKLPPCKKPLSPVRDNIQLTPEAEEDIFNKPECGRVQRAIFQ
UniProt O95793: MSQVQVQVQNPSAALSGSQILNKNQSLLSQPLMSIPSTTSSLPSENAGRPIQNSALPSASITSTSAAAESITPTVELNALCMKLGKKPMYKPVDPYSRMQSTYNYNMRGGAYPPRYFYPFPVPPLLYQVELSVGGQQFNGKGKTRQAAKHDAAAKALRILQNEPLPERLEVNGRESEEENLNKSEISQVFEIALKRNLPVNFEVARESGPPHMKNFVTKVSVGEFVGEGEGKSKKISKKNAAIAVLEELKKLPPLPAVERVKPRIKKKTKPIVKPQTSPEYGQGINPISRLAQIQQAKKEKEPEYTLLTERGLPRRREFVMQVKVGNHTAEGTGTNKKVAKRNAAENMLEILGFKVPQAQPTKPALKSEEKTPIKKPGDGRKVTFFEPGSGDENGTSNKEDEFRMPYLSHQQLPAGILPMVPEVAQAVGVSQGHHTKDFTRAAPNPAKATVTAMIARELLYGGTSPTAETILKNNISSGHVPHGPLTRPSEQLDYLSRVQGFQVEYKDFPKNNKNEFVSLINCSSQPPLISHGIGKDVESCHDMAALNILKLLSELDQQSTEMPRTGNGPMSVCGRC
UniProt P38159: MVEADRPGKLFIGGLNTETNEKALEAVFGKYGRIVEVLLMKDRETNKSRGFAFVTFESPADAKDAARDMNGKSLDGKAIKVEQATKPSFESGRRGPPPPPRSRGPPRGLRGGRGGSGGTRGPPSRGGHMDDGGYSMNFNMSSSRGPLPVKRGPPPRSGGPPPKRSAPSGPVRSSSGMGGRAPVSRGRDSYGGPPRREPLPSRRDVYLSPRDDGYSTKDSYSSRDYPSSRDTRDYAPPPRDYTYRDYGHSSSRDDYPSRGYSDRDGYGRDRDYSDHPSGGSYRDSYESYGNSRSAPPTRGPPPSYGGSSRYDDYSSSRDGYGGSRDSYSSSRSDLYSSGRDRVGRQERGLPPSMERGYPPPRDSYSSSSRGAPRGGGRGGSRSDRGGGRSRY
UniProt P63104: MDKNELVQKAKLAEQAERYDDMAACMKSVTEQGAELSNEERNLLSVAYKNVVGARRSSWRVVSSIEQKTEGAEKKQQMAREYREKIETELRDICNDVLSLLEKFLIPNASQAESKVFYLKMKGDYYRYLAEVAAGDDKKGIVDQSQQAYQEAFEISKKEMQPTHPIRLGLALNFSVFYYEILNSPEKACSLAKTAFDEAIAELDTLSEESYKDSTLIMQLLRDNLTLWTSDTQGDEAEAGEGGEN
UniProt P62258: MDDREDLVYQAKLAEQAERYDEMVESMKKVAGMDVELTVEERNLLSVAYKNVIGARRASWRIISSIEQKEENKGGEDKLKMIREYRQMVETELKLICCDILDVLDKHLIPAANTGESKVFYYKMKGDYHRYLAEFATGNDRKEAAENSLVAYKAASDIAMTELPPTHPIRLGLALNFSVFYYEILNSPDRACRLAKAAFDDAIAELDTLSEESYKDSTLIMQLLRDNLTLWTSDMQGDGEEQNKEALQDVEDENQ
UniProt P46013: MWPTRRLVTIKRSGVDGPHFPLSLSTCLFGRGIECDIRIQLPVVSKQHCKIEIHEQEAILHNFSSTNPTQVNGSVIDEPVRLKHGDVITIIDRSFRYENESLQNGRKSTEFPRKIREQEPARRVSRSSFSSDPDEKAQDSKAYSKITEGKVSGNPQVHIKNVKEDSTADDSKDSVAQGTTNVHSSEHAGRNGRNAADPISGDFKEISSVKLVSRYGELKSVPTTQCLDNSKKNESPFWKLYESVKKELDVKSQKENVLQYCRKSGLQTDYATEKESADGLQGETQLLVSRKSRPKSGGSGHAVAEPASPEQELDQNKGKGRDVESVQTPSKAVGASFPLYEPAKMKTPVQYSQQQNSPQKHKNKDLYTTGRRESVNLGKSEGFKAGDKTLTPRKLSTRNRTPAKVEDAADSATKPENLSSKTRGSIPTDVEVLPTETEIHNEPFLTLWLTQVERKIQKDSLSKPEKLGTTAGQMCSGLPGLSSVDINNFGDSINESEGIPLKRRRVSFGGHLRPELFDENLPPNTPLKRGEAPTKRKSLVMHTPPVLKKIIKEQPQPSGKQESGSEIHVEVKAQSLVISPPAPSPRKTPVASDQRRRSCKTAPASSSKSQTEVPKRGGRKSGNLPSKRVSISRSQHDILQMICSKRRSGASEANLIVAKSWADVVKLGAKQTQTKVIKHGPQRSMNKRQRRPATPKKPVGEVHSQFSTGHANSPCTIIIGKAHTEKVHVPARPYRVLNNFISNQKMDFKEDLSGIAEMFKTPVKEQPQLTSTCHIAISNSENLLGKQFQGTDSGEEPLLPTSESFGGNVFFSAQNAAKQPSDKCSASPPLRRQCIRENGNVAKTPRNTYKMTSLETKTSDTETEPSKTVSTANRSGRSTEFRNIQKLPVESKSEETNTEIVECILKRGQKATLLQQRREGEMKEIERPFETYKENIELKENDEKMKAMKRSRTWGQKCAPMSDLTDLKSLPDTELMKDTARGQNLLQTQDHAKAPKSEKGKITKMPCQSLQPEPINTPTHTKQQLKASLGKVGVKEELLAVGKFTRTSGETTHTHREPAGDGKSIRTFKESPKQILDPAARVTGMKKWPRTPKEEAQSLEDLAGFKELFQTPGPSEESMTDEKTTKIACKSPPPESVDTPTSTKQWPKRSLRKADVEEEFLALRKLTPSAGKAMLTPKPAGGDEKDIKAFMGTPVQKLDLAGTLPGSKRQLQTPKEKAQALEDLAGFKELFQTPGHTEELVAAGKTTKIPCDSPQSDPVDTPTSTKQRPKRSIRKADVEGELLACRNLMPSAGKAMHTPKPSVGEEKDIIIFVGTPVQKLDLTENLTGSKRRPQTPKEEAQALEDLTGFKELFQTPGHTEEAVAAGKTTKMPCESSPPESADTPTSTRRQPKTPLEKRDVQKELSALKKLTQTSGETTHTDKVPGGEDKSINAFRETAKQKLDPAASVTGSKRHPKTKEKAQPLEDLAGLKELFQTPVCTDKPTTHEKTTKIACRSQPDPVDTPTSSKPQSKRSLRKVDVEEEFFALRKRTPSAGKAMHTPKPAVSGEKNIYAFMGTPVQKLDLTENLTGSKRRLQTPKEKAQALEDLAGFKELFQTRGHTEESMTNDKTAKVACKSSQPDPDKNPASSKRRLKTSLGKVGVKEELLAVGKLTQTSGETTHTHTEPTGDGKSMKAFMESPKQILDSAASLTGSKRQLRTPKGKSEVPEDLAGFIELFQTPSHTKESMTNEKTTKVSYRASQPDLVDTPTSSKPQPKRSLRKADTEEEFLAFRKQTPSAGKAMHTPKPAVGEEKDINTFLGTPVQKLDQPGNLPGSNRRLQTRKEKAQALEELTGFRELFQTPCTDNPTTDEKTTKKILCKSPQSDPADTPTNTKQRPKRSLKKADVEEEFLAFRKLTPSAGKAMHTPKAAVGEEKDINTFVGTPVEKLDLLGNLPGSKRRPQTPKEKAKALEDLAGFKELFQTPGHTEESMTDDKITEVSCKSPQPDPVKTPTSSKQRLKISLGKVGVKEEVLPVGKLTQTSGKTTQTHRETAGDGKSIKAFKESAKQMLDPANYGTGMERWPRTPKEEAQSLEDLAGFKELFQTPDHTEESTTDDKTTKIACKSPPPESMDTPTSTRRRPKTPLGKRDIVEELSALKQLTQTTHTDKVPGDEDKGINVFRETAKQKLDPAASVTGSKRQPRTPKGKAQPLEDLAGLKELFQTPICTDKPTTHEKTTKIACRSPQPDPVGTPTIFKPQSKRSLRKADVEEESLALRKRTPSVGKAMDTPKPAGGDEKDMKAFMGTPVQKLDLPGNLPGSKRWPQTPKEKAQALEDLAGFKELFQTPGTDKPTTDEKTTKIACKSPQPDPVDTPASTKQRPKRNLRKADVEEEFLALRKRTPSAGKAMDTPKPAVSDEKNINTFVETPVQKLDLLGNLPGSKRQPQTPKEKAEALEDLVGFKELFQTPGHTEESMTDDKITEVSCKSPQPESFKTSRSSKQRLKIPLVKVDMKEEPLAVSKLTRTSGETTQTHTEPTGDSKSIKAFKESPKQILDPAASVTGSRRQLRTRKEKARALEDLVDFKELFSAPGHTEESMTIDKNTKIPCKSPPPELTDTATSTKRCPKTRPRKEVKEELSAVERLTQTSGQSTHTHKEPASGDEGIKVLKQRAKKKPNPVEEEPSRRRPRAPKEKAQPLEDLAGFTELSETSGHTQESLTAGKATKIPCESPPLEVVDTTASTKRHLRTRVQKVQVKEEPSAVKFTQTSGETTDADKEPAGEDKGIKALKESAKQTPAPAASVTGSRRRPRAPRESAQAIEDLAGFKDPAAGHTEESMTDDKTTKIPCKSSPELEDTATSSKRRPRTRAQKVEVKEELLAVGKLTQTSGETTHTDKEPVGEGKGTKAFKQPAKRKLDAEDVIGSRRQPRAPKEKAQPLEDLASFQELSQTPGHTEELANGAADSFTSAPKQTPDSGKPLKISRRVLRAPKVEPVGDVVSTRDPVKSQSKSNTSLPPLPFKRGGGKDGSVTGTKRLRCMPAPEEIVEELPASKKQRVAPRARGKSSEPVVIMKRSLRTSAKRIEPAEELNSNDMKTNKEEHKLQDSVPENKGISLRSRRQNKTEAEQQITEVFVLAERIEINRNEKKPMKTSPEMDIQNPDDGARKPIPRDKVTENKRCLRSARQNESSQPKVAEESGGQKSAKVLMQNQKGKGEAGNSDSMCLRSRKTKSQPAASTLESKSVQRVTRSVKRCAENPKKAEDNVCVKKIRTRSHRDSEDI
UniProt Q5T3I0: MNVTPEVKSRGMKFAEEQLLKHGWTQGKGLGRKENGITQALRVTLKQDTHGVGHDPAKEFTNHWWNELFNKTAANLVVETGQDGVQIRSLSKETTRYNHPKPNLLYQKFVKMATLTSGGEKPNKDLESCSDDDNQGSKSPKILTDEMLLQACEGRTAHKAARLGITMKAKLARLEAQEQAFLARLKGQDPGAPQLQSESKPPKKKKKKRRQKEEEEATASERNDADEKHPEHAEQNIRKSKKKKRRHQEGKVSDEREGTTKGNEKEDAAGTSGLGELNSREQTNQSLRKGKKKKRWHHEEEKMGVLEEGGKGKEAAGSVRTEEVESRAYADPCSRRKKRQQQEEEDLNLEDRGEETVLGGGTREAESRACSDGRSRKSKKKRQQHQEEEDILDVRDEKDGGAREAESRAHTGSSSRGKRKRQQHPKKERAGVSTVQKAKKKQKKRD
UniProt Q5SSJ5: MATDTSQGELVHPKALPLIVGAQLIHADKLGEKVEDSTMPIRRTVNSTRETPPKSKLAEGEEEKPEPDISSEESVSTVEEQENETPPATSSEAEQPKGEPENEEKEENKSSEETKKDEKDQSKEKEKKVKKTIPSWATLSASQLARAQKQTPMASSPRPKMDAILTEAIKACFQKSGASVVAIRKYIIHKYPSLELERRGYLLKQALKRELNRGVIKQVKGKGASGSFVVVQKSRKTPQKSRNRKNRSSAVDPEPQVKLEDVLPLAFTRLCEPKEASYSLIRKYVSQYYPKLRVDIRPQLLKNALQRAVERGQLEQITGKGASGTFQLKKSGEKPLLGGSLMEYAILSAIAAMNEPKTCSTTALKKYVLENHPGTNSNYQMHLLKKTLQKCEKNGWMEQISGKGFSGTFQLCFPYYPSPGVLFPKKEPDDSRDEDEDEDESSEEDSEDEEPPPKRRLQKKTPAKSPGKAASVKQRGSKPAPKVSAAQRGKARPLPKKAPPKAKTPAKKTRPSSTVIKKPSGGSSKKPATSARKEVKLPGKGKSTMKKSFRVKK

molecular target: EXO1-2x-Strep (human) (UniProt Q9UQ84); assay: affinity purification with mass spectrometry

Molecule | binding
STAU1 (from UniProt O95793 1-577) | binds
hnRNP-G (from UniProt P38159 1-391) | binds
14-3-3ζ (from UniProt P63104 1-245) | binds
14-3-3ε (from UniProt P62258 1-255) | binds
cell proliferation-associated antigen (KI67) (from UniProt P46013 1-3256) | binds
GPTC4 (from UniProt Q5T3I0 1-446) | binds
hnRNP-Q (from UniProt O60506 1-623) | binds
CHIP/STUB1 (from UniProt Q9UNE7 1-303) (enzyme) | binds
HP1B3 (from UniProt Q5SSJ5 1-553) | binds
14-3-3β (from UniProt P31946 1-246) | binds
RRP5/PDCD11 (from UniProt Q14690 1-1871) | binds
SFRS7 (protein, UniProt Q16629 1-238) MSRYGRYGGETKVYVGNLGTGAGKGELERAFSYYGPLRTVWIARNPPGFAFVEFEDPRDAEDAVRGLDGKVICGSRVRVELSTGMPRRSRFDRPPARRPFDPNDRCYECGEKGHYAYDCHRYSRRRRSRSRSRSHSRSRGRRYSRSRSRSRGRRSRSASPRRSRSISLRRSRSASLRRSRSGSIKGSRYFQSPSRSRSRSRSISRPRSSRSKSRSPSPKRSRSPSGSPRRSASPERMD | binds
SFRS5 (protein, UniProt Q13243 1-272) MSGCRVFIGRLNPAAREKDVERFFKGYGRIRDIDLKRGFGFVEFEDPRDADDAVYELDGKELCSERVTIEHARARSRGGRGRGRYSDRFSSRRPRNDRRNAPPVRTENRLIVENLSSRVSWQDLKDFMRQAGEVTFADAHRPKLNEGVVEFASYGDLKNAIEKLSGKEINGRKIKLIEGSKRHSRSRSRSRSRTRSSSRSRSRSRSRSRKSYSRSRSRSRSRSRSKSRSVSRSPVPEKSQKRGSSSRSKSPASVDRQRSRSRSRSRSVDSGN | binds
GNL3 (protein, UniProt Q9BVP2 1-549) MKRPKLKKASKRMTCHKRYKIQKKVREHHRKLRKEAKKRGHKKPRKDPGVPNSAPFKEALLREAELRKQRLEELKQQQKLDRQKELEKKRKLETNPDIKPSNVEPMEKEFGLCKTENKAKSGKQNSKKLYCQELKKVIEASDVVLEVLDARDPLGCRCPQVEEAIVQSGQKKLVLILNKSDLVPKENLESWLNYLKKELPTVVFRASTKPKDKGKITKRVKAKKNAAPFRSEVCFGKEGLWKLLGGFQETCSKAIRVGVIGFPNVGKSSIINSLKQEQMCNVGVSMGLTRSMQVVPLDKQITIIDSPSFIVSPLNSSSALALRSPASIEVVKPMEAASAILSQADARQVVLKYTVPGYRNSLEFFTVLAQRRGMHQKGGIPNVEGAAKLLWSEWTGASLAYYCHPPTSWTPPPYFNESIVVDMKSGFNLEELEKNNAQSIRAIKGPHLANSILFQSSGLTNGIIEEKDIHEELPKRKERKQEEREDDKDSDQETVDEEVDENSSGMFAAEETGEALSEETTAGEQSTRSFILDKIIEEDDAYDFSTDYV | binds
PHD-finger protein 6 (protein, UniProt Q8IWS0 1-365) MSSSVEQKKGPTRQRKCGFCKSNRDKECGQLLISENQKVAAHHKCMLFSSALVSSHSDNESLGGFSIEDVQKEIKRGTKLMCSLCHCPGATIGCDVKTCHRTYHYHCALHDKAQIREKPSQGIYMVYCRKHKKTAHNSEADLEESFNEHELEPSSPKSKKKSRKGRPRKTNFKGLSEDTRSTSSHGTDEMESSSYRDRSPHRSSPSDTRPKCGFCHVGEEENEARGKLHIFNAKKAAAHYKCMLFSSGTVQLTTTSRAEFGDFDIKTVLQEIKRGKRMKCTLCSQPGATIGCEIKACVKTYHYHCGVQDKAKYIENMSRGIYKLYCKNHSGNDERDEEDEERESKSRGKVEIDQQQLTQQQLNGN | binds
RRP1B (protein, UniProt Q14684 1-758) MAPAMQPAEIQFAQRLASSEKGIRDRAVKKLRQYISVKTQRETGGFSQEELLKIWKGLFYCMWVQDEPLLQEELANTIAQLVHAVNNSAAQHLFIQTFWQTMNREWKGIDRLRLDKYYMLIRLVLRQSFEVLKRNGWEESRIKVFLDVLMKEVLCPESQSPNGVRFHFIDIYLDELSKVGGKELLADQNLKFIDPFCKIAAKTKDHTLVQTIARGVFEAIVDQSPFVPEETMEEQKTKVGDGDLSAEEIPENEVSLRRAVSKKKTALGKNHSRKDGLSDERGRDDCGTFEDTGPLLQFDYKAVADRLLEMTSRKNTPHFNRKRLSKLIKKFQDLSEGSSISQLSFAEDISADEDDQILSQGKHKKKGNKLLEKTNLEKEKGSRVFCVEEEDSESSLQKRRRKKKKKHHLQPENPGPGGAAPSLEQNRGREPEASGLKALKARVAEPGAEATSSTGEESGSEHPPAVPMHNKRKRPRKKSPRAHREMLESAVLPPEDMSQSGPSGSHPQGPRGSPTGGAQLLKRKRKLGVVPVNGSGLSTPAWPPLQQEGPPTGPAEGANSHTTLPQRRRLQKKKAGPGSLELCGLPSQKTASLKKRKKMRVMSNLVEHNGVLESEAGQPQALGSSGTCSSLKKQKLRAESDFVKFDTPFLPKPLFFRRAKSSTATHPPGPAVQLNKTPSSSKKVTFGLNRNMTAEFKKTDKSILVSPTGPSRVAFDPEQKPLHGVLKTPTSSPASSPLVAKKPLTTTPRRRPRAMDFF | binds
ZNF655 (protein, UniProt Q8N720 1-491) MEEIPAQEAAGSPRVQFQSLETQSECLSPEPQFVQDTDMEQGLTGDGETREENKLLIPKQKISEEVHSYKVRVGRLKHDITQVPETREVYKSEDRLERLQEILRKFLYLEREFRQITISKETFTSEKNNECHEPEKSFSLDSTIDADQRVLRIQNTDDNDKYDMSFNQNSASGKHEHLNLTEDFQSSECKESLMDLSHLNKWESIPNTEKSYKCDVCGKIFHQSSALTRHQRIHTREKPYKCKECEKSFSQSSSLSRHKRIHTREKPYKCEASDKSCEASDKSCSPSSGIIQHKKIHTRAKSYKCSSCERVFSRSVHLTQHQKIHKEMPCKCTVCGSDFCHTSYLLEHQRVHHEEKAYEYDEYGLAYIKQQGIHFREKPYTCSECGKDFRLNSHLIQHQRIHTGEKAHECNECGKAFSQTSCLIQHHKMHRKEKSYECNEYEGSFSHSSDLILQQEVLTRQKAFDCDVWEKNSSQRAHLVQHQSIHTKENS | binds
hnRNP-R (protein, UniProt O43390 1-633) MANQVNGNAVQLKEEEEPMDTSSVTHTEHYKTLIEAGLPQKVAERLDEIFQTGLVAYVDLDERAIDALREFNEEGALSVLQQFKESDLSHVQNKSAFLCGVMKTYRQREKQGSKVQESTKGPDEAKIKALLERTGYTLDVTTGQRKYGGPPPDSVYSGVQPGIGTEVFVGKIPRDLYEDELVPLFEKAGPIWDLRLMMDPLSGQNRGYAFITFCGKEAAQEAVKLCDSYEIRPGKHLGVCISVANNRLFVGSIPKNKTKENILEEFSKVTEGLVDVILYHQPDDKKKNRGFCFLEYEDHKSAAQARRRLMSGKVKVWGNVVTVEWADPVEEPDPEVMAKVKVLFVRNLATTVTEEILEKSFSEFGKLERVKKLKDYAFVHFEDRGAAVKAMDEMNGKEIEGEEIEIVLAKPPDKKRKERQAARQASRSTAYEDYYYHPPPRMPPPIRGRGRGGGRGGYGYPPDYYGYEDYYDDYYGYDYHDYRGGYEDPYYGYDDGYAVRGRGGGRGGRGAPPPPRGRGAPPPRGRAGYSQRGAPLGPPRGSRGGRGGPAQQQRGRGSRGSRGNRGGNVGGKRKADGYNQPDSKRRQTNNQQNWGSQPIAQQPLQQGGDYSGNYGYNNDNQEFYQDTYGQQWK | binds
